Measured values from patent US12071415B2, “Carbon monoxide prodrugs for the treatment of medical disorders” (Georgia State University Research Foundation, Inc., priority 2018, dated 2024).
Some entries share one result that the patent states for a list of compounds.

Assay: RP-HPLC stability study (solid and acetonitrile solution)
Type: physicochemical
Details: exposed to ambient light and temperature
Source text: These prodrugs are also stable as a solution of acetonitrile stored at room temperature for at least seven days.

## CC1=CC(=O)N(C(=O)C(=O)N2C(=O)C=C(C)OS2(=O)=O)S(=O)(=O)O1 [Compound 7, 1,2-Bis(6-methyl-2,2-dioxido-4-oxo-1,2,3-oxathiazin-3(4H)-yl)ethane-1,2-dione]
  stable as a solid: at least 24 days
